The results in this text go back to PubChem BioAssay AID493027 (The Scripps Research Institute Molecular Screening Center, 2011).

By UniProt entry, the sequences of proteins in these tests, tags left out. Where a name states a change or a piece, a line headed by the entry shows the natural chain unless it says otherwise.
UniProt O60240: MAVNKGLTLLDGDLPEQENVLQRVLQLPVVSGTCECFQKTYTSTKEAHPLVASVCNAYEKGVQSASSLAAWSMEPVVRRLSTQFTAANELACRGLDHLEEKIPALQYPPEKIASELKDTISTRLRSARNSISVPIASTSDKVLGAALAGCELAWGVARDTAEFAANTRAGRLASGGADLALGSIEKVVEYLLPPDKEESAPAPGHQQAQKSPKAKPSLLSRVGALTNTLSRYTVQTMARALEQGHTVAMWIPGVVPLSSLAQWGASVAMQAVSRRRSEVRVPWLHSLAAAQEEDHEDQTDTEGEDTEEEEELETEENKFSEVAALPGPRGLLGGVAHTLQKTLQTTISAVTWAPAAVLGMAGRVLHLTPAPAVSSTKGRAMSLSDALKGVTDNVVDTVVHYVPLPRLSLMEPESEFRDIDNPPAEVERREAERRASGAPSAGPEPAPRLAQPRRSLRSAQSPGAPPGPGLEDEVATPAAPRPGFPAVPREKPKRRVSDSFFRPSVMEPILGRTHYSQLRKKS
UniProt Q8WTS1: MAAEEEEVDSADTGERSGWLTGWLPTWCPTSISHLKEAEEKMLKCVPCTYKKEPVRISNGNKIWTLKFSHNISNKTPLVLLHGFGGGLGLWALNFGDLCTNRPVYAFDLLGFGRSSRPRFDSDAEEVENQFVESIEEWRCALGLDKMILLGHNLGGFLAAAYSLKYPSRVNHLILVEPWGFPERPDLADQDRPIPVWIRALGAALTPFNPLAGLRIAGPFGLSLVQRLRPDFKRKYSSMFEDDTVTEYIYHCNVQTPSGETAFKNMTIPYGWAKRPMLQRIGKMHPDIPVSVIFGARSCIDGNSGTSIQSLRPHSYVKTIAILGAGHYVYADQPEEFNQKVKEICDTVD

The structures appear in SMILES notation. Where “and” joins values, the source holds several entries; their conditions need not be identical. Equal entries are not always repeated. In all, about 2,000 compounds went through this assay and about 45 (2%) were called active.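 Rule for the calls: active = inhibition above the screen-wide mean inhibition plus 3 SD (cut at about 44% in these data); inactive = the rest.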 The list shows a part of the results.

The test has as its target Perilipin-1 (Homo sapiens) + 1-acylglycerol-3-phosphate O-acyltransferase ABHD5 (Homo sapiens) (UniProt O60240+Q8WTS1). The test is described as follows: ABHD5-PLIN1 interaction inhibitors, pilot screen, cell lysate, split luciferase complementation, luminescence, NIH validation set (AID 493027).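 Note: 0% = DMSO wells with the 100% control not disclosed.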 The following applies: split G. princeps luciferase complementation, 4 h; at 7.9 µM, hits give high values.
As usually defined, the inhibition is the drop in the measured response relative to a control, in per cent. `COc1ccc(O)c(C(=O)/C=C/c2cc3ccccc3o2)c1`: the inhibition is active: 66.9%.
The same measure for `CCCCC[C@H](O)/C=C/[C@@H]1[C@@H](C/C=C\CCCC(=O)O)[C@H]2CO[C@@H]1C2`: inactive: -7.39%.
For `Nc1ncnc2c1ncn2C1OC(CO)C(O)C1O` (configuration not stated), the inhibition is inactive: -8.28%.
The value for `CS(=O)(=O)Oc1ccc2c(c1)O/C(=C\C=C\c1ccccc1)C2=O` was active: 58.8%.
As to `COc1cccc2cc(-c3ccccc3)c(=O)oc12`, the inhibition is inactive: -3.48%.
The value for `COc1cc2nc(N3CCN(C(=O)C4CCCO4)CC3)nc(N)c2cc1OC` (configuration not stated) was inactive: 2.29% and inactive: -14.9%; that for `C[C@H]1C[C@H]2[C@@H]3CCC4=CC(=O)C=C[C@]4(C)[C@@]3(Cl)[C@@H](O)C[C@]2(C)[C@@]1(O)C(=O)CO` was inactive: 1.29%; that for `Cn1cc(/C=C/C(=O)c2ccccc2)c2ccccc21` was inactive: 13.9%.
The same measure for `COc1ccc(-c2c3c(=O)n(C)c(=O)n(C)c3cn2C2CCCCC2)cc1`: inactive: 6.04%; for `O=C(c1cc2cc(Br)ccc2o1)N1CCCC1`: inactive: -0.81%.
Consider `CC(=O)[C@H]1CC[C@H]2[C@@H]3CCC4=CC(=O)CC[C@]4(C)[C@H]3[C@H](O)C[C@]12C`, for which the inhibition is inactive: 2.83%.
The value for `CC1(C)CC(C(CC(=O)O)c2ccccc2)CCO1` (configuration not stated) was inactive: -9.35%.
With `Cc1ccc(P(=O)(CSC(=N)N)c2ccc(C)cc2)cc1`, the inhibition is inactive: 6.44%.
The same measure for `CC(C)OC(=O)CC12CN3CN(C1)CC(CC(=O)OC(C)C)(C3)C2=O`: inactive: -2.21%; for `C[N+]12CCC(CC1)C(OC(=O)C(O)(c1ccccc1)c1ccccc1)C2` (configuration not stated): inactive: -9.73%; for `CC(=O)N1CCn2c3c(c4cc(C)ccc42)CCCC31` (configuration not stated): inactive: 8.46%.
The value for `CSc1ccc(/C=N/N2CCN(Cc3ccc(C)cc3C)CC2)cc1` was inactive: -3.53%.
The value for `C[C@H](NC(=O)Nc1ccccc1F)C(=O)O` was inactive: -0.07%; that for `COc1ccc2cc[nH]c2c1` was inactive: 4.17%.
With `CC(=O)Oc1cc(C(C)C)c(OCCN(C)C)cc1C`, the inhibition was inactive: -11.6%.
The value for `CCc1cc(=O)oc2cc(OCc3nn[nH]n3)ccc12` was inactive: -2.66%; that for `O=C(/C=C/c1c[nH]c2ccccc12)c1cccc2ccccc12` was inactive: 30.5%; that for `COC1=CC(=O)CC(C)C12Oc1c(Cl)c(OC)cc(OC)c1C2=O` (configuration not stated) was inactive: -6.72%.
The same measure for `CS(=O)(=O)Nc1cccc(C(=O)CC2(O)C(=O)Nc3ccc(Br)cc32)c1` (configuration not stated): inactive: -3.35%; for `O=C(N1CCCC1)C12CC3CC(C1)CC(C(=O)N1CCCC1)(C3)C2`: inactive: 3.37%.
With `O=c1[nH]c(=O)n([C@H]2C[C@H](O)[C@@H](CO)O2)cc1F`, the inhibition was inactive: -8.26%.
The same measure for `NC(N)=N/N=C/c1c(Cl)cccc1Cl`: inactive: 2.92%.
The same measure for `CC(C)Cn1c(=S)[nH]c2cc(C(=O)O)ccc2c1=O`: inactive: -8.2%.
On to `NS(=O)(=O)c1cc2c(cc1Cl)NCNS2(=O)=O`, for which the inhibition is inactive: -5%.
`Cc1coc2cc3oc(=O)c(CCC(=O)O)c(C)c3cc12`: the inhibition was inactive: 1.17%.
The value for `COc1cc(C)nc(-n2nc(C)cc2OC)n1` was inactive: -6.92%; that for `CS(=O)(=O)Nc1ccc([N+](=O)[O-])cc1Oc1ccccc1` was inactive: 2.7%; that for `CC(=O)[C@@]1(O)CC[C@H]2[C@@H]3CCC4=CC(=O)CC[C@]4(C)[C@H]3[C@@H](O)C[C@@]21C` was inactive: 4.04%.
In the case of `COc1ccc(CN2CCCC(C(=O)c3ccc(Cl)cc3)C2)cc1Cn1cccn1` (configuration not stated), the inhibition was inactive: 4.96%.
With `O=C(NCCO)c1ccc2[nH]c3ccccc3c2c1`, the inhibition was inactive: -4.98%.
As to `COC(=O)c1[nH]c2ccc(F)cc2c1NC(=O)C1=COCCO1`, the inhibition is inactive: -2.61%.
Regarding `CCOc1ccc(CC2c3cc(OCC)c(OCC)cc3CCN2C(=O)CN2CCN(C)CC2)cc1OCC` (configuration not stated), the inhibition is inactive: -4.1%.
The same measure for `COc1ccc2c(c1OC)C(C1c3c(cc4c(c3OC)OCO4)CCN1C)OC2=O` (configuration not stated): inactive: -3.67%; for `Cc1ccc2c(c1)c(=O)c1c3n2CCN(C(=O)CCl)C3CC1` (configuration not stated): inactive: 19.3%.
With `CCc1cc(C(N)=S)ccn1`, the inhibition is inactive: -8.89%.
As for `COc1cc(C(=O)OCCCN(C)C)cc(OC)c1OC`, the inhibition is inactive: -4.53%.
Regarding `O=C(OCC1CCCN2CCCCC12)c1ccc2c(c1)OCO2` (configuration not stated), the inhibition is inactive: -3.41%.
The same measure for `CC1(C)C(=O)OC(/C=C\c2ccccc2)C(C)(C)C1=O` (configuration not stated): inactive: -0.3%.
The same measure for `NC(=O)c1ncn([C@@H]2O[C@H](CO)[C@@H](O)[C@H]2O)c1O`: inactive: 1.94%; for `COc1ccccc1-c1ccc(/C=C2/C=C(CC(C)C)OC2=O)o1`: inactive: 6.03%; for `COc1ccccc1/C=C/CN1CCN(Cc2ccc(F)cc2)C(CCO)C1` (configuration not stated): inactive: -5.19%.
For the molecule `O=C(N/N=C/c1ccc([N+](=O)[O-])o1)c1ccc(O)cc1`, the inhibition was inactive: 3.07%.
The same measure for `Cn1nc(-c2ccc(Cl)cc2)nc2c(=O)n(C)c(=O)nc1-2`: inactive: -2.2%.
For the molecule `COc1ccc2c3c([nH]c2c1)C1(NCC3)C(=O)Nc2ccccc21` (configuration not stated), the inhibition is inactive: -3.76%.
The value for `CCOc1ccc(NC2OC(C)C(O)C(O)C2O)c([N+](=O)[O-])c1` (configuration not stated) was inactive: -3.67%; that for `CC1(C)CC(O)(CNCc2ccc3c(c2)OCO3)CCO1` (configuration not stated) was inactive: -11.9%; that for `O=C(O)CCCN1C(=O)NC2NC(=O)NC21` (configuration not stated) was inactive: -6.31%.
The same measure for `Cc1ccc(/C(=C\CN2CCCC2)c2ccccn2)cc1`: inactive: -5.35%.
The same measure for `O=C1C(Cc2ccccc2)NC(=S)N1c1ccccc1` (configuration not stated): inactive: -13.4%.
Take `O=C(c1ccccc1F)c1cc2c(cc1[N+](=O)[O-])OCCO2`: the inhibition was inactive: -4.46%.
Turning to `Cc1ccc(S(=O)(=O)NC(=O)Nc2cc(C)ccc2F)cc1`, the inhibition is inactive: -9.96%.
Turning to `O=C1OC(c2ccccc2)=C/C1=C/c1cccs1`, the inhibition is inactive: 1.27%.
The same measure for `CC[C@]1(O)CC2CN(CCc3c([nH]c4ccccc34)[C@@](C(=O)OC)(c3cc4c(cc3OC)N(C=O)[C@H]3[C@@](O)(C(=O)OC)[C@H](OC(C)=O)[C@]5(CC)C=CCN6CC[C@]43[C@@H]65)C2)C1` (some centres not stated): inactive: 4.83%; for `CNCCC=C1c2ccccc2CCc2ccccc21`: inactive: -10.4%.
Consider `CN1CCC(=C2c3ccccc3C=Cc3ccccc32)CC1`, for which the inhibition is inactive: 6.02%.
`Cn1cc(CN(CCO)Cc2cccs2)c(-c2cccc(Cl)c2)n1`: the inhibition was inactive: -0.84%.
The value for `COc1ccc2oc(C)c(C(N)=O)c2c1` was inactive: -3.2%; that for `CN1CCN(CC/C=C2/c3ccccc3Sc3ccc(S(=O)(=O)N(C)C)cc32)CC1` was inactive: 4.05%.
Turning to `CC(=O)OC(CC(=O)O)C[N+](C)(C)C` (configuration not stated), the inhibition is inactive: -12.8%.
As for `CC1(C)Cc2ccccc2C(C(Cc2ccccc2)C(N)=O)=N1` (configuration not stated), the inhibition is inactive: -5.58%.
The value for `Cc1ccc2[nH]c3c(c2c1)CN(C)CC3` was inactive: -2.27%; that for `CC(C)CCOCC(=O)Nc1cccc(C(=O)O)c1` was inactive: -3.29%.
`CC(=O)c1cc2c(cc1NC(=O)c1ccco1)OCCO2`: the inhibition is inactive: -0.37%.
As for `CCCc1cc(C(N)=S)ccn1`, the inhibition was inactive: -3.81%.
The value for `COc1ccc(NC(=O)C2CCCN2C(=O)OC(C)(C)C)cc1` (configuration not stated) was inactive: -11.3%.
Regarding `CC(=O)Nc1ccc(OS(=O)(=O)c2c(C)cc(C)cc2C)cc1`, the inhibition is inactive: 1.17%.
Consider `CC(=O)OCC(=O)[C@@]1(O)CC[C@H]2[C@@H]3CCC4=CC(=O)CC[C@]4(C)[C@H]3[C@@H](O)C[C@@]21C`, for which the inhibition is inactive: 2.83%.
Consider `O=C(NC(=S)Nc1ccc2c(c1)OCCO2)c1ccccc1F`, for which the inhibition was inactive: -3.88%.
The value for `NS(=O)(=O)c1cc(C2(O)NC(=O)c3ccccc32)ccc1Cl` (configuration not stated) was inactive: 8.72%.
As for `O=C(NCc1ccc2c(c1)OCO2)c1ccc2c(c1)OCCO2`, the inhibition was inactive: -4.38%.
Turning to `O=C(O)CCCCCCCC(=O)O`, the inhibition is inactive: -5.68%.
The value for `COc1ccc(C(=O)NCC2OCCc3ccccc32)cc1` (configuration not stated) was inactive: 5.88%.
In the case of `CCCCN(CCCC)CCCOC(=O)c1ccc(N)cc1`, the inhibition was inactive: -0.98%.
The value for `CC[N+](C)(C)c1cccc(O)c1` was inactive: -6.49%; that for `Cc1ccc(-c2nnc(-c3ccc4c(c3)OCO4)o2)cc1` was inactive: -6.07%.
For the molecule `COc1cc(/C=C/C(=O)O)cc(S(=O)(=O)NCCCO)c1OC`, the inhibition was inactive: -7.07%.
For `O=C(NC(=S)Nc1ccc(N2CCN(C(=O)c3ccccc3)CC2)cc1)c1cccs1`, the inhibition is inactive: 13.1%.
Consider `COc1ccc2[nH]c(=O)c3c(c2c1)OC(C)(C)C=C3`, for which the inhibition was inactive: -6.15%.
For the molecule `CN(C)c1ccc(C(CN)c2c[nH]c3ccccc23)cc1` (configuration not stated), the inhibition was inactive: 31.5%.
Turning to `CCOc1ccccc1Oc1coc2cc(OCC(=O)O)ccc2c1=O`, the inhibition is inactive: -5.23%.
The same measure for `CCn1cc(CN2N=C(C)CC2c2ccccc2)c(C)n1` (configuration not stated): inactive: 1.27%.
The value for `CC[N+](C)(CC)CCOC(=O)C(O)(c1ccccc1)C1CCCCC1` (configuration not stated) was inactive: -8.98%.
With `C/C=C/c1ccc(OCCCCN2CC(C)CC(C)C2)c(OC)c1` (configuration not stated), the inhibition was inactive: -3.75%.
The same measure for `O=C(Cc1ccc(Br)cc1)c1ccc(O)cc1O`: inactive: 11.4%; for `COc1c(O)ccc2c1CN1CCc3cc4c(cc3C1C2)OCO4` (configuration not stated): inactive: -0.53%.
Regarding `CCNC1=C(Cl)C(=O)c2ccccc2C1=O`, the inhibition was inactive: -12.7%.
For the molecule `COC(=O)C1=C(C)NC(C)=C([N+](=O)[O-])C1c1ccccc1C(F)(F)F` (configuration not stated), the inhibition was inactive: 1.42%.
With `Nc1ccc(-c2nc3ncccc3o2)c(Cl)c1`, the inhibition was inactive: -7.73%.
Turning to `O=C1C2CC=C(Cl)CC2C(=O)N1CCc1c[nH]c2ccccc12` (configuration not stated), the inhibition is inactive: -0.58%.
The same measure for `CN(C)CCCN1c2ccccc2Sc2ccc(C(F)(F)F)cc21`: inactive: -6.54%; for `Cc1ccc2c(c1)c1c(n2C)C(=O)CCC1`: inactive: -0.2%; for `N#CCC(N)=C(C#N)C#N`: inactive: -8.27%.
